The values below come from PMC10452847 (Cancers, 2023).

pEC50: −log10 of the molar value.

Series [1] relates to RH4 cells. As to the kind of experiment: cells. The following applies: Homo sapiens, Rh4, 72 h, read-out: EC50 (viability).
Series [2] concerns Ba/F3 TEL-FGFR4 cells. As to the kind of experiment: cells. To be noted: Mus musculus, BaF3, read-out: EC50 (cell killing).
For series [3], the system named is 7250 normal human fibroblast cell line. As to the kind of experiment: cells. To be noted: 72 h, read-out: EC50 (viability).
For series [4] the following is noted: 25 mg/kg oral gavage, single dose; SCMC tumor-bearing mice.
Series [5] relates to RMS559 cells. The following applies: 24 h post-treatment.
Series [6] relates to RMS559 cells. As to the kind of experiment: cells. To be noted: Homo sapiens, 72 h, read-out: EC50 (viability).
For series [7], the system named is Ba/F3 TEL-FGFR4 cells. To be noted: 1 ng/mL of IL-3 added to medium.
The next series has as its system SCMC cells. The series can be described thus: cells. The following applies: Homo sapiens, 72 h, read-out: EC50 (viability).
The subject of series [8] is RH4 cells. To be noted: 24 h post-treatment.

With `C=CC(=O)N1CC[C@H](n2nc(C#Cc3cc(OC)cc(OC)c3)c3c(N)ncnc32)C1` [futibatinib], the pEC50 in the series on RH4 cells [1] was 5.18; with Ba/F3 TEL-FGFR4 cells [2], 8.88; in series [3], 4.49; in the series on RMS559 cells [6] it was 6.32; with SCMC cells it was 4.93. Further, the “time at which concentration in plasma peaks” value in series [4] is recorded as 1 h. For the same molecule, the “caspase 3/7 activity compared to DMSO control” value in the series on RMS559 cells [5] and with RH4 cells [8] was “significant increase” throughout. The “effect of IL-3 on killing by futibatinib” value in the series on Ba/F3 TEL-FGFR4 cells [7] is “prevents futibatinib from killing Ba/F3 TEL-FGFR4 cells”.

As a reminder, the pEC50 is −log10 of the EC50, conventionally taken in molar units.
